This passage reports survivor count and T/C results from PubChem BioAssay AID248 (DTP/NCI, 2004).

In this test the test system is L1210 leukemia ip in BDF1 mice, survival T/C. The experiment in a line: NCI In Vivo Anticancer Drug Screen. Data for tumor model L1210 Leukemia (intraperitoneal) in B6D2F1 (BDF1) mice. The settings on record: T/C endpoint: mean survival time, higher T/C = longer survival.
Where [1] appears, read: dose: 400.0 mg/kg/injection, schedule: Q01DX001 (ip), vehicle: saline.
Where [2] appears, read: dose: 400.0 mg/kg/injection, schedule: Q01DX009 (ip), vehicle: saline.
Setting [3] is: dose: 200.0 mg/kg/injection, schedule: Q04DX003 (ip), vehicle: Klucel (hydroxypropylcellulose) (HPC).
[4] abbreviates: dose: 400.0 mg/kg/injection, schedule: Q04DX003 (ip), vehicle: Klucel (hydroxypropylcellulose) (HPC).
Where [5] appears, read: dose: 400.0 mg/kg/injection, schedule: Q04DX003 (ip), vehicle: saline with Tween-80.
Setting [6] is: dose: 50.0 mg/kg/injection, schedule: Q01DX009 (ip), vehicle: saline.
Setting [7] is: dose: 100.0 mg/kg/injection, schedule: Q04DX002 (ip), vehicle: Klucel (hydroxypropylcellulose) (HPC).
Where [8] appears, read: dose: 200.0 mg/kg/injection, schedule: Q04DX002 (ip), vehicle: Klucel (hydroxypropylcellulose) (HPC).
Setting [9] is: dose: 400.0 mg/kg/injection, schedule: Q04DX002 (ip), vehicle: Klucel (hydroxypropylcellulose) (HPC).

The list shows only some results of the screen, not a fair sample: it is rich in T/C values a quarter to a half above the control, in often repeated tests (any T/C) and in doses without a T/C. Further doses and runs are listed elsewhere. T/C gives the treated animals as a percentage of the vehicle group. Some doses have a count of surviving animals in place of a T/C: the source holds a T/C of zero for them, seemingly a mark for toxic or unscored doses. Some doses without a T/C left all or most animals alive at the check, yet need not have been tolerated: survival well below the control is almost never listed, so the zero probably covers shortened survival too. Counts of survivors are from the toxicity check (mostly the fifth day) where no day follows; animals may have died later. Schedule codes are those of the source, taken here to give the interval after Q, in days (D) or hours (H), and the number of doses after X. Some doses were run more than once; the results are listed from low to high. Some molecules as drawn cover several salts, stereoisomers or complexes of the source; a dose is that of the sample tested. For survival time, this PubChem deposit counts one and a half times the control or more as active, and values a quarter to a half above the control carry no call in these data; other NCI protocols may use other cut-offs. Some T/C values carry the count of animals alive at the toxicity check (mostly the fifth day); where none is given, no animal had died by that day. Additions like (4×) say how often a value occurs here.

`CCc1ccc(N=C/C=C/c2ccccc2)cc1`: the survivor count reads like this: (dose: 200.0 mg/kg/injection, schedule: Q01DX009 (ip), vehicle: other) 1 of 6; (dose: 400.0 mg/kg/injection, schedule: Q01DX009 (ip), vehicle: other) 0 of 6.

On to `CCCCCC(C)(O)CCC` (stereo unspecified), for which the survivor count under setting [1] is given as 0 of 4.

As for `CCOC(=O)/C=C(\C)N1CCCCC1`, under setting [2], the survivor count was 3 of 6.

As for `C/C(O)=C(\C#N)c1ccc(Cl)cc1`, the survivor count is, setting by setting: (dose: 50.0 mg/kg/injection, schedule: Q01DX001 (ip), vehicle: carboxymethylcellulose (CMC)) 3 of 3; (dose: 100.0 mg/kg/injection, schedule: Q01DX009 (ip), vehicle: carboxymethylcellulose (CMC)) 1 of 3; (dose: 200.0 mg/kg/injection, schedule: Q01DX001 (ip), vehicle: carboxymethylcellulose (CMC)) 0 of 3 and 0 of 6.

Take `c1cc[c]([Sn]([c]2ccccc2)([c]2ccccc2)[n]2cncn2)cc1`: the survivor count (dose: 100.0 mg/kg/injection, schedule: Q04DX002 (ip), vehicle: saline with Tween-80) is recorded as 0 of 3; the survivor count (dose: 200.0 mg/kg/injection, schedule: Q04DX002 (ip), vehicle: saline with Tween-80) is 0 of 3; the survivor count (dose: 400.0 mg/kg/injection, schedule: Q04DX002 (ip), vehicle: saline with Tween-80) is recorded as 0 of 3.

As to `NNC(=S)NC1CCCCC1`, the survivor count runs as follows: under setting [3], 5 of 6; under setting [4], 0 of 6.

As to `O=C(/C(=C\c1ccccc1)CN1CCOCC1)c1ccc(Br)cc1`, the survivor count under setting [5] is listed as 2 of 6.

Consider `CCNC1C2CCC(C2)C1c1ccccc1` (stereo unspecified), for which the survivor count is, setting by setting: under setting [6], 2 of 6; (dose: 100.0 mg/kg/injection, schedule: Q04DX003 (ip), vehicle: saline) 1 of 4; (dose: 200.0 mg/kg/injection, schedule: Q04DX003 (ip), vehicle: saline) 0 of 4; (dose: 400.0 mg/kg/injection, schedule: Q04DX003 (ip), vehicle: saline) 0 of 4.

With `CCc1ccccc1NC(=O)Sc1ccccc1C`, the survivor count (dose: 400.0 mg/kg/injection, schedule: Q01DX009 (ip), vehicle: Klucel (hydroxypropylcellulose) (HPC)) is recorded as 0 of 6.

On to `O=C(Nc1ccc([N+](=O)[O-])cn1)Nc1ccccc1F`, for which the T/C is 89, 98 (2×), 102 % of control under setting [7]; 100, 100 [2 of 3 alive], 115, 148 % of control under setting [8]; 91 [2 of 3 alive], 104, 107, 108 % of control under setting [9].

Consider `NCc1cccc2ccccc12`, for which the survivor count is, setting by setting: (dose: 250.0 mg/kg/injection, schedule: Q01DX001 (ip), vehicle: saline) 3 of 6; under setting [1], 0 of 6.

For the compound `CCCCCCCCc1ccc(NNC(N)=S)cc1`, under “dose: 12.5 mg/kg/injection, schedule: Q01DX009 (ip), vehicle: saline”, the T/C is 125 % of control. The survivor count reads like this: under setting [6], 0 of 3; (dose: 100.0 mg/kg/injection, schedule: Q01DX009 (ip), vehicle: saline) 0 of 3; (dose: 200.0 mg/kg/injection, schedule: Q01DX009 (ip), vehicle: saline) 0 of 3.

As for `O=c1cc2ccccc2c(O)[nH]1`, the survivor count runs as follows: (dose: 200.0 mg/kg/injection, schedule: Q01DX001 (ip), vehicle: Klucel (hydroxypropylcellulose) (HPC)) 1 of 6; (dose: 400.0 mg/kg/injection, schedule: Q01DX001 (ip), vehicle: Klucel (hydroxypropylcellulose) (HPC)) 1 of 6.

Turning to `C[CH2][Pb]([CH2]C)([CH2]C)[O]C(=O)CBr`, the survivor count (dose: 6.25 mg/kg/injection, schedule: Q01DX009 (ip), vehicle: Klucel (hydroxypropylcellulose) (HPC)) is 5 of 6; the survivor count (dose: 12.5 mg/kg/injection, schedule: Q01DX009 (ip), vehicle: Klucel (hydroxypropylcellulose) (HPC)) was 4 of 6; the survivor count (dose: 25.0 mg/kg/injection, schedule: Q04DX002 (ip), vehicle: Klucel (hydroxypropylcellulose) (HPC)) is listed as 2 of 3; the survivor count (dose: 50.0 mg/kg/injection, schedule: Q04DX002 (ip), vehicle: Klucel (hydroxypropylcellulose) (HPC)) is 0 of 3; the survivor count under setting [7] is on record as 1 of 3; the survivor count under setting [8] is given as 0 of 3. Further, the survivor count under setting [9] is on record as 0 of 3.

As for `CC(=O)NC1=C(N2CC2(C)C)C(=O)C(NC(C)=O)=C(N2CC2(C)C)C1=O`, the survivor count by setting is: (dose: 100.0 mg/kg/injection, schedule: Q04DX003 (ip), vehicle: Klucel (hydroxypropylcellulose) (HPC)) 1 of 6; under setting [3], 1 of 6; under setting [4], 1 of 6.

Regarding `CNC(=N)c1ccc(NC(=N)c2ccc(NC(=N)c3ccc(NC(=O)Nc4ccc(C(=N)NC)cc4)cc3)cc2)cc1`, the T/C reads like this: (dose: 3.75 mg/kg/injection, schedule: Q01DX015 (ip), vehicle: water) 138 % of control; (dose: 10.0 mg/kg/injection, schedule: Q01DX001 (ip), vehicle: water) 138 % of control; (dose: 10.0 mg/kg/injection, schedule: Q01DX015 (sc), vehicle: water) 148 % of control; (dose: 15.0 mg/kg/injection, schedule: Q01DX015 (ip), vehicle: water) 141 % of control; (dose: 25.0 mg/kg/injection, schedule: Q01DX001 (ip), vehicle: water) 145 % of control [5 of 6 alive]. For the same compound, the survivor count (dose: 50.0 mg/kg/injection, schedule: Q01DX001 (ip), vehicle: water) is 0 of 6 and the survivor count (dose: 100.0 mg/kg/injection, schedule: Q01DX001 (ip), vehicle: water) was 0 of 6.

Consider `O=NN(CCCl)C(=O)Nc1cc2c3ccccc3ccc2c2ccccc12`, for which the T/C (dose: 266.0 mg/kg/injection, schedule: Q01DX009 (ip), vehicle: carboxymethylcellulose (CMC)) is 125 % of control and the T/C (dose: 400.0 mg/kg/injection, schedule: Q01DX009 (ip), vehicle: carboxymethylcellulose (CMC)) is 141 % of control.

As for `CNC(=O)C(C)C1C(=O)/C(=C(O)/C=C/C(C)=C\C(C)C2OC3(C)OC(C=CC34CO4)C2C)C(=O)N1C1CCC(O)C(C)O1` (stereo unspecified), the survivor count under setting [2] is 6 of 6.

For the compound `S=C(NCCNC(=S)[S][Sn]([c]1ccccc1)([c]1ccccc1)[c]1ccccc1)[S][Sn]([c]1ccccc1)([c]1ccccc1)[c]1ccccc1`, the survivor count reads like this: (dose: 100.0 mg/kg/injection, schedule: Q01DX009 (ip), vehicle: saline with Tween-80) 0 of 6; (dose: 128.0 mg/kg/injection, schedule: Q01DX015 (ip), vehicle: carboxymethylcellulose (CMC)) 3 of 6; (dose: 200.0 mg/kg/injection, schedule: Q04DX003 (ip), vehicle: saline with Tween-80) 2 of 6; under setting [5], 0 of 6.

Take `CC(=O)SC1CS(=O)(=O)CC1SC(C)=O` (stereo unspecified): under setting [4], the survivor count is given as 0 of 6.

Regarding `CC(=O)OC1=C2C(C)(CCC(OC(C)=O)C2(C)C)C2=C(C1=O)C1(C)CCC(C(C)CCCC(C)C)C1(C)CC2=O` (stereo unspecified), the survivor count under setting [5] was 4 of 4.

`CNC(=S)N/N=C/C(=N\NC(=S)NC)C(O)C(O)C(O)C(O)CO` (stereo unspecified): under setting [1], the survivor count is reported as 6 of 6.
